These are yes or no findings as the source states them, for the method shown. Binding can be weak; no strength is given.
Target: GmBEHL1 (BD-GmBEHL1, pGBKT7-GmBEHL1) (soybean (Glycine max cv. Williams 82)) (UniProt I1J8Y4)
Test: two-hybrid; Matchmaker GAL4 system, pGBKT7 and pGADT7 constructs co-transformed into S. cerevisiae AH109; growth on SD/-Ade/-His/-Leu/-Trp after 2-3 days at 30 °C

- binding: binds
Substance: GmBIN2 (pGADT7-GmBIN2) (from UniProt A0A286QY50)
